According to patent US7803910B2, “Soluble CD164 polypeptides” (Merck Serono S.A., priority 2005, dated 2010):
At least one compound was matched to its structure with a doubt left.

Assays:
LPS-induced TNFα release = test: LPS-induced TNFalpha release in mice (Example 5); type: in vivo, C3H mice; conditions: 0.1 mg/kg, sc; P<0.001
Procedure: C3H mice (Elevage Janvier) (8 week old), received E. Coli's LPS (O111:B4, Sigma, 0.3 mg/kg, ip) 15 minutes after the administration of the test molecules. LPS was solubilized in sterile saline. Dexamethasone (0.1 mg/kg, sc) was used as reference. 24 h later, the animals were sacrificed and the blood was sampled. Plasma levels of TNF-αwere determined in serum using an ELISA kit (R&D). Statistical analysis was determined with an ANOVA test followed by a post-test of Dunnett.

[1] = test system: recruitment of macrophages; test: Thioglycollate-induced leukocyte peritoneal recruitment assay (Example 11); type: in vivo, mice (strain C3H); conditions: 1 mg/kg, sc; p<0.001

For `C[C@@H]1C[C@H]2[C@@H]3CCC4=CC(=O)C=C[C@]4(C)[C@@]3(F)[C@@H](O)C[C@]2(C)[C@@]1(O)C(=O)CO` [Dexamethasone, reference compound], the “LPS-induced TNFα” value (LPS-induced TNFα release) was “significantly decrease” and the recruitment of macrophages [1] was “inhibits significantly”.
